No constants are given. Whether binding was seen depends on the method and setting. For some of these results: Binding calls can cover weak binding; strength is not graded here. For some of these results: Tags and fused reporters may be left off the sequences shown. For some of these results: In cells and extracts the contact can be indirect. Values belong to the molecule of their own block, whether it stands above or below them.
Columns and labels:
[1] = target: T1, GST-Mitch (Drosophila (D. melanogaster)) (UniProt Q9V3V7); experiment: pull-down; lysates from S2 cells expressing HA-tagged SFs incubated at 4°C for 2 hr with GST-fusion proteins or GST alone; Western blotting with anti-HA; only the target purified
T1 sequence: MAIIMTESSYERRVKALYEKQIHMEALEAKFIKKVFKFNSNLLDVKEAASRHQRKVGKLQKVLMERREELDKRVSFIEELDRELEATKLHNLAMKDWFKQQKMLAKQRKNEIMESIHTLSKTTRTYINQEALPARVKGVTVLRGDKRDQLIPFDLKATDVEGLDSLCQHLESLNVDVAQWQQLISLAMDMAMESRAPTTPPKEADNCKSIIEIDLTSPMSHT

The chains behind the UniProt entries cited, without tags or fusion partners. Where a name states a change or a piece, a line headed by the entry shows the natural chain unless it says otherwise.
UniProt Q9VYB1: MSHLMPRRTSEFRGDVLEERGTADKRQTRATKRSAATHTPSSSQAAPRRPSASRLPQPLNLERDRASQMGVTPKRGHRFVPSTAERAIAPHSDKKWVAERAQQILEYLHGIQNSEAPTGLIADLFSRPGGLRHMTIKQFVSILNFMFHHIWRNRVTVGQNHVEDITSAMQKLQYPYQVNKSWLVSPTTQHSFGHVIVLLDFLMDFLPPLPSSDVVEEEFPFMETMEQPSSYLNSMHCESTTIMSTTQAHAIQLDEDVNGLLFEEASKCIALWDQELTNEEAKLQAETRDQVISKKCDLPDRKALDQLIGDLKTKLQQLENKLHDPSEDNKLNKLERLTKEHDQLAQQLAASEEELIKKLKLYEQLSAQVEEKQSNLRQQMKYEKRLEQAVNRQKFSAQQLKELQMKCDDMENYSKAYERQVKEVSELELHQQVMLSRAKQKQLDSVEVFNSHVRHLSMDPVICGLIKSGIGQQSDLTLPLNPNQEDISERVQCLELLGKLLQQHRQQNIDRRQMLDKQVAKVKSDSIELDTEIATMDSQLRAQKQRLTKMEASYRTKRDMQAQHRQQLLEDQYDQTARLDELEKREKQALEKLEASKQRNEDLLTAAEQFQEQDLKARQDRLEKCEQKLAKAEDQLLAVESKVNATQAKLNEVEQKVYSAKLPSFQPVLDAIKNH
UniProt Q9VU15: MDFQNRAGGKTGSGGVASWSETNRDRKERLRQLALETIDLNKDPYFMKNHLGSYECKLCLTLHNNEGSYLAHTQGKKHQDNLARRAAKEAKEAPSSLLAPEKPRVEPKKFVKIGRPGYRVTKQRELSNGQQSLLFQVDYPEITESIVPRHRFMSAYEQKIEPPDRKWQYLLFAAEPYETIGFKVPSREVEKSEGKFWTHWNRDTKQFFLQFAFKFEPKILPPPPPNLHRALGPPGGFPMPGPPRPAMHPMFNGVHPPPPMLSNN

[2] = target: T2, GST-HOAP (Drosophila (D. melanogaster)) (UniProt Q95RV2); experiment: pull-down; bacterially expressed purified proteins; GST-Mitch (60 nM), GST-Nuf2 (50 nM), GST-Ndc80 (40 nM) or GST (200 nM) on glutathione beads incubated at 4°C for 2 hr with 6His-Sf3A2 (20 nM) or 6His-Prp31 (20 nM) in NETN buffer (20 mM Tris-HCl, pH 8, 100 mM NaCl, 1 mM EDTA, 0.5% NP-40); both purified
T2 sequence: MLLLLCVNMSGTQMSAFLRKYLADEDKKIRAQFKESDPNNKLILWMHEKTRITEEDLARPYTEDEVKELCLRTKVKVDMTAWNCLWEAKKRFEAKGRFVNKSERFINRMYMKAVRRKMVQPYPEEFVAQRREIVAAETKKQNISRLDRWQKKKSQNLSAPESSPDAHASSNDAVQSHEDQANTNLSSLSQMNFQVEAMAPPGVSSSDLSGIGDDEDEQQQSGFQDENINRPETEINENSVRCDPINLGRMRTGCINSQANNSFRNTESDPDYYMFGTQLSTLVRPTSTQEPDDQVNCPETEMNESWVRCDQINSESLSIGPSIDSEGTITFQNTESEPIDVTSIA

[3] = target: T1, GST-Mitch (Drosophila (D. melanogaster)); experiment: as above
[4] = target: GST-Ndc80 (Drosophila (D. melanogaster)) (UniProt Q9VYB1); experiment: as above
[5] = target: T3, GST-Ver (Drosophila (D. melanogaster)) (UniProt Q9VTZ2); experiment: as above
T3 sequence: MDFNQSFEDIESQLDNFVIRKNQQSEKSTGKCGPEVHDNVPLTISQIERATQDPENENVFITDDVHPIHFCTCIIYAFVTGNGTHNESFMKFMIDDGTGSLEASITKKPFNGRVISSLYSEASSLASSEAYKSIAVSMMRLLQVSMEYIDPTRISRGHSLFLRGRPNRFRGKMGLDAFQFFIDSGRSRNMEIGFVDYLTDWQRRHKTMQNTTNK

[6] = target: T4, Prp31 (endogenous, S2 cells) (D. melanogaster (endogenous in S2)) (UniProt Q9VUM1); experiment: co-IP; S2 cell extracts (lysis buffer with 1% Triton X-100) incubated for 3 hr at 25°C with protein G sepharose beads conjugated to antibodies; endogenous proteins, detected by Western blotting
T4 sequence: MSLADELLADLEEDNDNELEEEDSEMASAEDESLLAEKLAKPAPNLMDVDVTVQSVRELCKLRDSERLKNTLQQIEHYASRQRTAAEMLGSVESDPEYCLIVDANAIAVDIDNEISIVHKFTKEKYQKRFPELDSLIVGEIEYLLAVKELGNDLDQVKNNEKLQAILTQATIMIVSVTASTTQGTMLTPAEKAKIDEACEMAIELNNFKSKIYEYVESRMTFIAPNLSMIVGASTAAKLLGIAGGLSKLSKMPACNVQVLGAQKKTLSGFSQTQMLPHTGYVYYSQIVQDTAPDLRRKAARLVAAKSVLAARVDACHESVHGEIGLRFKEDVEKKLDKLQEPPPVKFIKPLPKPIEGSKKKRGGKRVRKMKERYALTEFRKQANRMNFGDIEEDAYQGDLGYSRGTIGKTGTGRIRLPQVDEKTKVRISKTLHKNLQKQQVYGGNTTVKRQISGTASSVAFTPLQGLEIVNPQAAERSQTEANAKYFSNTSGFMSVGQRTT

[7] = target: Sf3A2 (endogenous, S2 cells) (D. melanogaster (endogenous in S2)) (UniProt Q9VU15); experiment: as above
[8] = target: Ndc80 (endogenous, S2 cells) (D. melanogaster (endogenous in S2)) (UniProt Q9VYB1); experiment: as above
[9] = target: GST-Nuf2 (Drosophila (D. melanogaster)); experiment: pull-down; bacterially expressed purified proteins; GST-Mitch (60 nM), GST-Nuf2 (50 nM), GST-Ndc80 (40 nM) or GST (200 nM) on glutathione beads incubated at 4°C for 2 hr with 6His-Sf3A2 (20 nM) or 6His-Prp31 (20 nM) in NETN buffer (20 mM Tris-HCl, pH 8, 100 mM NaCl, 1 mM EDTA, 0.5% NP-40); both purified
[10] = target: GST-Ndc80 (Drosophila (D. melanogaster)) (UniProt Q9VYB1); experiment: pull-down; lysates from S2 cells expressing HA-tagged SFs incubated at 4°C for 2 hr with GST-fusion proteins or GST alone; Western blotting with anti-HA; only the target purified
[11] = target: GST-Nuf2 (Drosophila (D. melanogaster)); experiment: as above
[12] = target: Nuf2 (endogenous, S2 cells) (D. melanogaster (endogenous in S2)); experiment: co-IP; S2 cell extracts (lysis buffer with 1% Triton X-100) incubated for 3 hr at 25°C with protein G sepharose beads conjugated to antibodies; endogenous proteins, detected by Western blotting

binding [1]: binds
Molecule: 3HA-Sf3A2 (Drosophila (D. melanogaster))

binding [2]: no binding
binding [3]: binds
binding [4]: binds
binding [5]: no binding
Molecule: 6His-Sf3A2 (from UniProt Q9VU15)

binding [6]: binds
binding [7]: binds
Molecule: Ndc80 (endogenous, S2 cells) (from UniProt Q9VYB1)

binding [8]: binds
binding [6]: binds
Molecule: Sf3A2 (endogenous, S2 cells) (from UniProt Q9VU15)

binding [4]: binds
binding [9]: binds
B1: 6His-Prp31 (protein, UniProt Q9VUM1 1-501)
chain: T4 sequence

binding [10]: binds
binding [11]: binds
B2: 3HA-Prp31 (protein, UniProt Q9VUM1 1-501)
chain: T4 sequence

binding [8]: binds
binding [12]: binds
binding [7]: binds
B3: Prp31 (endogenous, S2 cells) (protein, UniProt Q9VUM1 1-501)
chain: T4 sequence

— PMC6287947
